The results in this text go back to patent publication US20230002446A1 (The University of Sydney, priority 2019, published 2023).

The data set in a line: general procedure: peptide synthesis; Chemmatrix CTC resin. The following applies: whole synthesis, scale 12.5 μmol.

[ ]: non-standard residue; d: D form. AEEA = NCCOCCOCC(=O)O

Substance “H-KKKK[AEEA]MTPGTQSPFFLLLLLTVLTVV-OH (SMILES CSCC[C@H](NC(=O)COCCOCCNC(=O)[C@H](CCCCN)NC(=O)[C@H](CCCCN)NC(=O)[C@H](CCCCN)NC(=O)[C@@H](N)CCCCN)C(=O)N[C@H](C(=O)N1CCC[C@H]1C(=O)NCC(=O)N[C@H](C(=O)N[C@@H](CCC(N)=O)C(=O)N[C@@H](CO)C(=O)N1CCC[C@H]1C(=O)N[C@@H](Cc1ccccc1)C(=O)N[C@@H](Cc1ccccc1)C(=O)N[C@@H](CC(C)C)C(=O)N[C@@H](CC(C)C)C(=O)N[C@@H](CC(C)C)C(=O)N[C@@H](CC(C)C)C(=O)N[C@@H](CC(C)C)C(=O)N[C@H](C(=O)N[C@H](C(=O)N[C@@H](CC(C)C)C(=O)N[C@H](C(=O)N[C@H](C(=O)N[C@H](C(=O)O)C(C)C)C(C)C)[C@@H](C)O)C(C)C)[C@@H](C)O)[C@@H](C)O)[C@@H](C)O)” came in with an isolated mass of 9.6 mg and an isolated yield of 26%.
